Experimental findings from article PMC5601180, “Uptake and metabolism of sulphated steroids by the blood–brain barrier in the adult male rat” (Journal of Neurochemistry, 2017) are described below.

The conditions of series [1]: standard added to rat brain homogenate, n = 4.
Series [2] is described as follows: Bilateral brain perfusion, capillary depletion and separation of free and sulphated 3H-steroids. The following applies: after perfusion with the 3H-steroid sulphate. It counts as in vivo, rat. As for the experimental part:
Brains were bilaterally perfused for 0.5 min with ^3H‐labelled DHEAS 1.25 or 6.0 μCi (0.046 or 0.221 MBq)/mL (13.5 or 64.9 nM) or PregS 1.0 μCi (0.037 MBq)/mL (47.6 nM). The hindbrain was removed and each hemisphere homogenised in 2 vols (w/v) buffer containing (in mM) NaCl 141, KCl 4, NaH2PO4 1, CaCl2 2.8, MgCl2 1, HEPES 10, D‐glucose 10, pH 7.4. A sample of the homogenate of the whole right hemisphere was removed for scintillation counting, and the remainder retained as the whole brain homogenate.
The left hemisphere homogenate was separated into capillary‐enriched and capillary‐depleted fractions by the method of Triguero et al. (1990). For this, an equal volume of 26% dextran (w/w) solution was added to the homogenate and a sample taken for liquid scintillation counting before centrifugation at 5300 g for 15 min at 4°C. The upper layer was taken as the capillary‐depleted fraction and the pellet as the capillary‐enriched fraction.
Before extraction, fractions were sonicated in 5 vols ice‐cold, 5 mM potassium phosphate buffer, pH 7. Small portions (150 μL) were removed for measurement of protein content (Bradford 1976) and total radioactivity. For the latter, homogenate was solubilised (15 min, 20°C) in 10 vols Soluene then bleached (2 h, 50°C) with 0.3 vol hydrogen peroxide before counting in Ecoscint H containing Triton X‐100 (6% v/v), glacial acetic acid (0.6% v/v) and butylated hydroxytoluene (2% w/v). The remainder of each homogenate was extracted as described in detail elsewhere (Ebner et al. 2006; Sujkovic et al. 2009), to give free steroid and steroid sulphate fractions. First, homogenates were extracted into 20 vols ethanol containing acetic acid 3% (v/v). After centrifugation (28 000 g, 30 min, 25°C) to remove denatured protein, the extracts were delipidated by partitioning three times against 10 vols isooctane. Extracts were dried down under vacuum and redissolved in ethanol, which was then diluted to 20% v/v in 5 mM potassium phosphate buffer, pH 7.0 at a total volume of 20 ml. Separation of free and sulphated steroids was achieved by passage through a 60 mg Oasis MAX® cartridge. After washing the cartridge with 5 mL ethanol at 20% v/v in ammonium acetate (20 mM, pH 7), free steroids were eluted in 4 mL ethyl acetate. Passage of 20 mL ethanol at 60% v/v in formate/pyridine buffer (20 mM, pH 3) eluted any steroid glucuronides present. Finally, steroid sulphates were eluted in 30 mL 60% v/v ethanol containing ammonium carbonate 1% (w/v). To measure the radioactivity of each fraction, portions were dried down and then redissolved in Ecoscint H for counting. The remainder was dried down, redissolved in ethanol 96% v/v and stored at −20°C for subsequent analysis by TLC.

With `CC(=O)[C@H]1CC[C@H]2[C@@H]3CC=C4C[C@@H](O)CC[C@]4(C)[C@H]3CC[C@]12C` [^3H‐Preg, [7‐^3H]‐pregnenolone, reference compound], in series [1], the “recovery into free steroid (FS) fraction” value came out at 102.01 ± 4.00%, the “recovery into steroid glucuronide (SG) fraction” value amounted to 2.26 ± 0.24% and the “recovery into steroid sulphate (SS) fraction” value stood at 0.25 ± 0.03%.
For the molecule `CC(=O)[C@H]1CCC2C3CC=C4C[C@@H](OS(=O)(=O)O)CC[C@]4(C)C3CC[C@@]21C` (stereo partly shown) [PregS, pregnenolone sulphate], in series [1], the “recovery into free steroid (FS) fraction” value came out at 6.84 ± 0.69%, the “recovery into steroid glucuronide (SG) fraction” value came to 0.13 ± 0.02% and the “recovery into steroid sulphate (SS) fraction” value is on record as 42.03 ± 1.29%. In series [2], the “extraction efficiency for total radioactivity from capillary” value is listed as 76.0 ± 2.3% and the “extraction efficiency for total radioactivity from parenchyma” value came to 88.7 ± 4.3%.
Regarding `C[C@]12CC[C@H](OS(=O)(=O)O)CC1=CCC1C2CC[C@]2(C)C(=O)CCC12` (stereo partly shown) [DHEAS, dehydroepiandrosterone sulphate], in series [1], the “recovery into free steroid (FS) fraction” value stood at 1.89 ± 0.28%, the “recovery into steroid glucuronide (SG) fraction” value came out at 0.18 ± 0.01% and the “recovery into steroid sulphate (SS) fraction” value was determined as 74.15 ± 0.92%. For the same molecule, in series [2], the “extraction efficiency for total radioactivity from capillary” value came out at 80.0 ± 1.3% and the “extraction efficiency for total radioactivity from parenchyma” value worked out at 98.6 ± 8.2%.
